According to the supplement of paper PMC12823440, “Inhibitors supercharge kinase turnover through native proteolytic circuits” (Nature, 2025):
The other results are listed elsewhere or left out. Hit calls seldom repeat between salt and free forms of one compound.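 In K562 cells expressing nanoluciferase-fused kinases, luminescence was recorded at 4 h intervals between 2 and 18 h, normalized as percent of control with DMSO at 100% and a positive control at 0%. A significant (2 sigma) signal drop marks a time point as decreased. The authors' rule for a hit is not shown and takes in more than the number of time points.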

Protein sequences, listed by entry. Tags and fused reporters are not part of them. Lines headed by an entry give the natural chain unless they say otherwise; changes in a name come on top.
UniProt Q15208: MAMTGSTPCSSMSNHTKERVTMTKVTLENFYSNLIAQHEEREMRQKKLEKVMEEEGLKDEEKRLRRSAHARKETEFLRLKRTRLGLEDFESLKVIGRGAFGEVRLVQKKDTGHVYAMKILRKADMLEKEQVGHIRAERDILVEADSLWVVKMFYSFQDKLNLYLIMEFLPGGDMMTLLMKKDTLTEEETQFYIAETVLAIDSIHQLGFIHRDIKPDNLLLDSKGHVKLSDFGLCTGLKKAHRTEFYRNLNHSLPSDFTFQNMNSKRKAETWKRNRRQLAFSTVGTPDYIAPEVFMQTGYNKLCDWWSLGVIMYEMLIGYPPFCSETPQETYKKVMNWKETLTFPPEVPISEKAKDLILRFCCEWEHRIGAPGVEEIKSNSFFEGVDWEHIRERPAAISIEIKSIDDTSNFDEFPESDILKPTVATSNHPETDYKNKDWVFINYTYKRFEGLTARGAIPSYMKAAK
UniProt P42680: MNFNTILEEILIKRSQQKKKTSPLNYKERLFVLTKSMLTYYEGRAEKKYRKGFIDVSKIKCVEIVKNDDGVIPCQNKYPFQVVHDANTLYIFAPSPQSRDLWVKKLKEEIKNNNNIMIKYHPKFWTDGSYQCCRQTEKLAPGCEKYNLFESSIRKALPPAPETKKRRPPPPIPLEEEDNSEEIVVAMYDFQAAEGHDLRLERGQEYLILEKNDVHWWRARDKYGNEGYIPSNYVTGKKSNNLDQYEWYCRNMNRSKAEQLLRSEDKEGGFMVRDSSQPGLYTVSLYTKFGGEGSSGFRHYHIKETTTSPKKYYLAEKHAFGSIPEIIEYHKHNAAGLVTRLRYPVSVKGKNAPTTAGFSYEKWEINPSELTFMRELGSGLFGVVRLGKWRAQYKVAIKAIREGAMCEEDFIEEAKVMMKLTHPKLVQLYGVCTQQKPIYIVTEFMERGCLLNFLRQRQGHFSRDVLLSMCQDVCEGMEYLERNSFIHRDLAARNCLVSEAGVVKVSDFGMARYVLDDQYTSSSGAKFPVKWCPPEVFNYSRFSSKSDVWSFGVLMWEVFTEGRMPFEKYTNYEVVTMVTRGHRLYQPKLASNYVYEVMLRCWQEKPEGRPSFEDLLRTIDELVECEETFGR
UniProt P29597: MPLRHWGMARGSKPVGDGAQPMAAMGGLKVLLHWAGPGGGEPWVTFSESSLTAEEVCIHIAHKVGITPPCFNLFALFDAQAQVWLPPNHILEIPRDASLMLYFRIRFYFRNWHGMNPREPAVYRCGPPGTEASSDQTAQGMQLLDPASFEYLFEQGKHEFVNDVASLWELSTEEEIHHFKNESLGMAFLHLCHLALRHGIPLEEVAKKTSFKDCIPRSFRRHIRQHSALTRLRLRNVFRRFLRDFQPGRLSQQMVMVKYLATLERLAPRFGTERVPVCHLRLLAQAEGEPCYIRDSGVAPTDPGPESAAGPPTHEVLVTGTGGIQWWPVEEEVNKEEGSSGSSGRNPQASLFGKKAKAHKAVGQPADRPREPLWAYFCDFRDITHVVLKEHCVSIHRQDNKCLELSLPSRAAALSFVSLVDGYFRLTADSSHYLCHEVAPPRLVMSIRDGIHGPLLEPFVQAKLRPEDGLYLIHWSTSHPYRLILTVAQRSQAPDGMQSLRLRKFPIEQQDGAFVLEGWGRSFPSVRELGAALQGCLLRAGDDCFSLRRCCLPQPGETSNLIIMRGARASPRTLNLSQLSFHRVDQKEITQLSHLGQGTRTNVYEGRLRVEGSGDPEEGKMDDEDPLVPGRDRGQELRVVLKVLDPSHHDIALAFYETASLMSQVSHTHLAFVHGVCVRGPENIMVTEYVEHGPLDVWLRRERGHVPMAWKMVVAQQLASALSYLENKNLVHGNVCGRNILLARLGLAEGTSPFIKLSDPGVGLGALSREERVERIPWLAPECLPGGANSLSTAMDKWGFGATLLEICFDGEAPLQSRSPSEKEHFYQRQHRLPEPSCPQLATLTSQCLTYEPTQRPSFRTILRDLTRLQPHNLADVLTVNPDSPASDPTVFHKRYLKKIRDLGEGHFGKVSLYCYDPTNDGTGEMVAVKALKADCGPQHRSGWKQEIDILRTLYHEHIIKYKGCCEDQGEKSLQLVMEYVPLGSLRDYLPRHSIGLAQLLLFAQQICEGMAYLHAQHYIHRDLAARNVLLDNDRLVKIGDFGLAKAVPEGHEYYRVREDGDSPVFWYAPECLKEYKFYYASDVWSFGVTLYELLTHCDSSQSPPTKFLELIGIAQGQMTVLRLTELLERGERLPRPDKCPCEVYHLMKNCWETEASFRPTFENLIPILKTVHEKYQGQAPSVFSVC
UniProt P07947, whole entry, looked up: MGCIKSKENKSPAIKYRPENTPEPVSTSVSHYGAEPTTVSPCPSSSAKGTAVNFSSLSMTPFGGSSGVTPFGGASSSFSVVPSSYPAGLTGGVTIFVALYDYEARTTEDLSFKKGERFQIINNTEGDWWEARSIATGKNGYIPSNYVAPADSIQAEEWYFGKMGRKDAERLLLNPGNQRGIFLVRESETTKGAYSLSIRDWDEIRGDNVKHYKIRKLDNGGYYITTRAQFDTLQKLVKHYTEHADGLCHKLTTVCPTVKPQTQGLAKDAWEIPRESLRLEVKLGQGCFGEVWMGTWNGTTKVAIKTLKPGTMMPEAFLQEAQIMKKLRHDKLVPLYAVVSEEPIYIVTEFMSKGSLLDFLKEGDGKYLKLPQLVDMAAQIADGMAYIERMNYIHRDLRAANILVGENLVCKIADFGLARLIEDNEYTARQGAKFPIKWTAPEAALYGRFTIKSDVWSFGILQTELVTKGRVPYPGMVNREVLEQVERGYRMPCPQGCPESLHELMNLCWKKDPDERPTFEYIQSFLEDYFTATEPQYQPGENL
UniProt P31749: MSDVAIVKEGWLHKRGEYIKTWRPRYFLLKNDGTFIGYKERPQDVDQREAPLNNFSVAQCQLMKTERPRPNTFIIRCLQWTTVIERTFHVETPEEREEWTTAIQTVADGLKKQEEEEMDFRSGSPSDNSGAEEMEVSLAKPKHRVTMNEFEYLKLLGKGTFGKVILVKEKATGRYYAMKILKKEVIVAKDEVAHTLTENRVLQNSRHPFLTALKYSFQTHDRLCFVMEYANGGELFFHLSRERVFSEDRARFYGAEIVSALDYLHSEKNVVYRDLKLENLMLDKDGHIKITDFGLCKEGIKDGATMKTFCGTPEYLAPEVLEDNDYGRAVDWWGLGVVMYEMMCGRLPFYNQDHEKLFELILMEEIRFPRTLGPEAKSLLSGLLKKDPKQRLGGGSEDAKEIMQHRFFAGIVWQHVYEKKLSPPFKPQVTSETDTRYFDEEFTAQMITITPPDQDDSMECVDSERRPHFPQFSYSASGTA
UniProt P10398: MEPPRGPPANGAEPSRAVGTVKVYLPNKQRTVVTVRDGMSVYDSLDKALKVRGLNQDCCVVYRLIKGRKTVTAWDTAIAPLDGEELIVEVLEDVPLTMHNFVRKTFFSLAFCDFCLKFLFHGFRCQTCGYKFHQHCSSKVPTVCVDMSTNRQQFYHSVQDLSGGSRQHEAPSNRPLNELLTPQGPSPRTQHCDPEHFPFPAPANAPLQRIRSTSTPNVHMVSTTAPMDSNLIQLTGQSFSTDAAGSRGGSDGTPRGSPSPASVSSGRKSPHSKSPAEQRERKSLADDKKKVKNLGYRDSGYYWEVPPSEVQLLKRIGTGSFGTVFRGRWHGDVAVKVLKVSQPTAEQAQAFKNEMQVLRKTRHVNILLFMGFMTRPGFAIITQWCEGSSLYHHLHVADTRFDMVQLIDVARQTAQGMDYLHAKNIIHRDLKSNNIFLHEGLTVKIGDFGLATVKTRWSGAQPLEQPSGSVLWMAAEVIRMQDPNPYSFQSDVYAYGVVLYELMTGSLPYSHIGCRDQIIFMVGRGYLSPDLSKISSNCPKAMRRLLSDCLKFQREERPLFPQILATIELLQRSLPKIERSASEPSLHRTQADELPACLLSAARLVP
UniProt O14965: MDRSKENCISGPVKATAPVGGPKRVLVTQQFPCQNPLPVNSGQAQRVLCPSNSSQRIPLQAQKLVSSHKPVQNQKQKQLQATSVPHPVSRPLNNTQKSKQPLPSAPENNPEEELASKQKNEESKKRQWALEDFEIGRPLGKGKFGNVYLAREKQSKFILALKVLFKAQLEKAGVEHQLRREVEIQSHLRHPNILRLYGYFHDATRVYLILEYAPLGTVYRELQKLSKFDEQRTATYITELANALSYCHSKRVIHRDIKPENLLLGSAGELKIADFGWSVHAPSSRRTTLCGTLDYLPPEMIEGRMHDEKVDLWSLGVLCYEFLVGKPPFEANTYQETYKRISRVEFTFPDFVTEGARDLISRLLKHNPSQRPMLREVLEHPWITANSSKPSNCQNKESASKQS
UniProt Q9UQB9: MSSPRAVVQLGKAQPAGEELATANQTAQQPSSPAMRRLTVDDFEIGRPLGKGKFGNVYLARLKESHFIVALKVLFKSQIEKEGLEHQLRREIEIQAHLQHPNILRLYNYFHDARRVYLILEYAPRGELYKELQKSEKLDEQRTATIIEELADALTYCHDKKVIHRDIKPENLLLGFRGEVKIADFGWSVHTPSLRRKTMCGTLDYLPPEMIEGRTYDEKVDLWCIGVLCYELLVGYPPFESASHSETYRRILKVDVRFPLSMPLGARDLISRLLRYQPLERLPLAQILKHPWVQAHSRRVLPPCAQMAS
UniProt P51451: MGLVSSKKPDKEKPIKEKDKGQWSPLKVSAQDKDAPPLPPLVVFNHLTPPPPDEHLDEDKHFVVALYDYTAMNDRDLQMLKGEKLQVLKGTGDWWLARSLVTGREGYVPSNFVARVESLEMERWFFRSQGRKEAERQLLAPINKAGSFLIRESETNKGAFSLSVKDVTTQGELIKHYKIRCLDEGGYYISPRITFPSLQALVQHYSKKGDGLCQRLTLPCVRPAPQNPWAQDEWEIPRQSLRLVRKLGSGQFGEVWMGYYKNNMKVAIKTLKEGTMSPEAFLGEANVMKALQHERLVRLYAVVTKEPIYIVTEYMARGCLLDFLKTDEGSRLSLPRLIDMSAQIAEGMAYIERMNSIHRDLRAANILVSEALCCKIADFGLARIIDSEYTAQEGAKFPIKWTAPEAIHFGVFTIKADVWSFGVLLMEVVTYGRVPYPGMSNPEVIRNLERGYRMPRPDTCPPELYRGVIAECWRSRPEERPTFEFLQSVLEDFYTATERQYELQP
UniProt P15056, whole entry, looked up: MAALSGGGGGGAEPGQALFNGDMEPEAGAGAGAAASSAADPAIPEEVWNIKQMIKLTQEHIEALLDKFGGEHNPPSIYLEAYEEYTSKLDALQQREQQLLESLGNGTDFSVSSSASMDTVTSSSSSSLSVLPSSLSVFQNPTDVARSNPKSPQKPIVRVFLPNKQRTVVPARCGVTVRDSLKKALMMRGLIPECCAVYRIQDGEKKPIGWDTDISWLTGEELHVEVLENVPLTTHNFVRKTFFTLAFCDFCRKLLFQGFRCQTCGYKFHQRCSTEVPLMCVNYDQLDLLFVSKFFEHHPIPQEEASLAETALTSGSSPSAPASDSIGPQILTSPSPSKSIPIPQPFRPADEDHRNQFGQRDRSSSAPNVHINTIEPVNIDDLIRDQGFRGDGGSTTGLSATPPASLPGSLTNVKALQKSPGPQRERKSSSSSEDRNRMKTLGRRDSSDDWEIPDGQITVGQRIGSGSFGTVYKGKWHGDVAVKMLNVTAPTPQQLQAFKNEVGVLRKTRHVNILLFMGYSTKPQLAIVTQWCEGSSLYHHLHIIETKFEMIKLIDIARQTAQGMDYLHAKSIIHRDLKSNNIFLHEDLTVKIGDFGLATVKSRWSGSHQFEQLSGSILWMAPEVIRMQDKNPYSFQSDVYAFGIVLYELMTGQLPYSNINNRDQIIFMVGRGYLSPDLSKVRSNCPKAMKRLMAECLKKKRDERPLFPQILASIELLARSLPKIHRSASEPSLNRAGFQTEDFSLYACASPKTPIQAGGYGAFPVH
UniProt Q06187: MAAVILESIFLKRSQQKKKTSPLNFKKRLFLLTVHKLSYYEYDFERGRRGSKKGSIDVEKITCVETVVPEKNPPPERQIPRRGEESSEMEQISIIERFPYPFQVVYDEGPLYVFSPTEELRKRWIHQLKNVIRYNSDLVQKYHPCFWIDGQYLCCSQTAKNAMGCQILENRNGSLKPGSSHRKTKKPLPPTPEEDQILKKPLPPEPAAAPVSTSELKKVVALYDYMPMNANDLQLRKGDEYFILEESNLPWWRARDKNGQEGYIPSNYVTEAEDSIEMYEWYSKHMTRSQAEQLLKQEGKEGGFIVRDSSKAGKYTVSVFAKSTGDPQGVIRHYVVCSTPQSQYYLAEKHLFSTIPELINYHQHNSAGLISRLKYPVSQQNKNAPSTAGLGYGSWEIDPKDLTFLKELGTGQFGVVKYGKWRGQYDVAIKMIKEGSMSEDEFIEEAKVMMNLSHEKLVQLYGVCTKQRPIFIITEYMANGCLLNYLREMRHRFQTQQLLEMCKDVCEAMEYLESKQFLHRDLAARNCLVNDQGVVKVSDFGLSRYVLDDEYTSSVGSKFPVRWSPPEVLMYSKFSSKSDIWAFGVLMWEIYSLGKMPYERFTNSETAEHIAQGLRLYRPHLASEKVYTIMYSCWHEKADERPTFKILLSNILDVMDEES

Columns and labels:
Settings in all cases: K562; 2-18 h
STK38 = STK38 (UniProt Q15208); assay: kinase-Nluc reporter destabilization hit call (1 = scored as downregulated) (binary); higher = compound decreases kinase abundance
SYK = SYK (UniProt P43405); assay: as above
TEC = TEC (UniProt P42680); assay: as above
TYK2 = TYK2 (UniProt P29597); assay: as above
ULK3 = ULK3 (UniProt Q6PHR2); assay: as above
YES1 = YES1 (UniProt P07947); assay: as above
ZAK = ZAK (UniProt Q9NYL2); assay: as above
ZAP70 = ZAP70 (UniProt P43403); assay: as above
ABL1 = ABL1 (UniProt P00519); assay: number of time points (of 5) at which kinase-Nluc abundance scored as decreased, DMSO-normalised (count); higher = more persistent destabilization
AKT1 = AKT1 (UniProt P31749); assay: as above
ALK = ALK (UniProt Q9UM73); assay: as above
ARAF = ARAF (UniProt P10398); assay: as above
AURKA = AURKA (UniProt O14965); assay: as above
AURKB = AURKB (UniProt Q96GD4); assay: as above
AURKC = AURKC (UniProt Q9UQB9); assay: as above
BLK = BLK (UniProt P51451); assay: as above
BMX = BMX (UniProt P51813); assay: as above
BRAF = BRAF (UniProt P15056); assay: as above
BRAF_V600E = assay: as above
BTK = BTK (UniProt Q06187); assay: as above

SMILES | kinase-Nluc reporter destabilization hit call (STK38) | kinase-Nluc reporter destabilization hit call (SYK) | kinase-Nluc reporter destabilization hit call (TEC) | kinase-Nluc reporter destabilization hit call (TYK2) | kinase-Nluc reporter destabilization hit call (ULK3) | kinase-Nluc reporter destabilization hit call (YES1) | kinase-Nluc reporter destabilization hit call (ZAK) | kinase-Nluc reporter destabilization hit call (ZAP70) | number of time points (ABL1) | number of time points (AKT1) | number of time points (ALK) | number of time points (ARAF) | number of time points (AURKA) | number of time points (AURKB) | number of time points (AURKC) | number of time points (BLK) | number of time points (BMX) | number of time points (BRAF) | number of time points (BRAF_V600E) | number of time points (BTK)
CN1CCC(c2ccccc2CC(C)(C)Nc2nc(N3CCOCC3)nc(-n3c(C(F)F)nc4ccccc43)n2)CC1 [Zandelisib] (10 µM) | inactive: 0 | inactive: 0 | inactive: 0 | inactive: 0 | inactive: 0 | inactive: 0 | inactive: 0 | inactive: 0 | 0 | 0 | 0 | 0 | 0 | 0 | 0 | 0 | 0 | 0 | 0 | 0
CNc1nc(Nc2cn(C(C)(C)C#N)nc2C)ncc1C(F)(F)F (10 µM) | inactive: 0 | inactive: 0 | inactive: 0 | inactive: 0 | inactive: 0 | inactive: 0 | inactive: 0 | inactive: 0 | 0 | 0 | 0 | 0 | 0 | 0 | 0 | 0 | 0 | 0 | 0 | 0
N#Cc1c2nc3ccccc3nc2n2ccc(NC(=O)c3cccs3)cc12 (10 µM) | inactive: 0 | inactive: 0 | inactive: 0 | inactive: 0 | inactive: 0 | inactive: 0 | inactive: 0 | inactive: 0 | 0 | 0 | 0 | 0 | 0 | 0 | 0 | 0 | 0 | 0 | 0 | 0
O=C(O)c1cc(=O)c2c(OCC(O)COc3cccc4oc(C(=O)O)cc(=O)c34)cccc2o1 [Cromolyn (sodium)] (10 µM) | inactive: 0 | inactive: 0 | inactive: 0 | inactive: 0 | inactive: 0 | inactive: 0 | inactive: 0 | inactive: 0 | 0 | 0 | 0 | 0 | 0 | 0 | 0 | 0 | 0 | 0 | 0 | 0
NC(=O)c1cnc2[nH]ccc2c1N[C@@H]1[C@@H]2CC3C[C@H]1C[C@@](O)(C3)C2 [Peficitinib] (10 µM) | inactive: 0 | inactive: 0 | inactive: 0 | inactive: 0 | inactive: 0 | inactive: 0 | inactive: 0 | inactive: 0 | 4 | 0 | 0 | 0 | 0 | 0 | 0 | 0 | 3 | 0 | 4 | 0
CCCCCCCCCCCCCCCCOP(=O)([O-])OCC[N+](C)(C)C [Miltefosine] (10 µM) | inactive: 0 | inactive: 0 | inactive: 0 | inactive: 0 | inactive: 0 | inactive: 0 | inactive: 0 | inactive: 0 | 0 | 0 | 0 | 0 | 0 | 0 | 0 | 0 | 0 | 0 | 0 | 0
CCCCCCCC/C=C\CCCCCCCCCCCC(=O)O [Erucic acid] (10 µM) | inactive: 0 | inactive: 0 | inactive: 0 | inactive: 0 | inactive: 0 | inactive: 0 | inactive: 0 | inactive: 0 | 0 | 0 | 0 | 0 | 0 | 0 | 0 | 0 | 0 | 0 | 0 | 0
O=C1NC(=O)C(c2cnc3ccccn23)=C1c1cn2c3c(cc(F)cc13)CNCC2 [GSK-3 inhibitor 1] (2.5 µM) | inactive: 0 | inactive: 0 | inactive: 0 | inactive: 0 | inactive: 0 | inactive: 0 | inactive: 0 | inactive: 0 | 0 | 0 | 0 | 0 | 0 | 0 | 0 | 0 | 0 | 2 | 0 | 0
C[C@@H]1CC(=O)c2c(ccc3c2C(=O)c2cccc(O)c2C3=O)C1 [Ochromycinone] (10 µM) | inactive: 0 | inactive: 0 | inactive: 0 | inactive: 0 | inactive: 0 | inactive: 0 | inactive: 0 | inactive: 0 | 0 | 0 | 0 | 0 | 0 | 0 | 0 | 0 | 0 | 0 | 0 | 0
Cc1cccc2c3c(ccc12)C(=O)C1=C(OCC1C)C3=O (stereo not given) [Dihydroisotanshinone I] (2.5 µM) | inactive: 0 | inactive: 0 | inactive: 0 | inactive: 0 | inactive: 0 | inactive: 0 | inactive: 0 | inactive: 0 | 0 | 0 | 0 | 0 | 0 | 0 | 0 | 0 | 0 | 0 | 0 | 0
